In publication PMC3703528:
Results are given in words; binding and its absence hold for the method and conditions named.

Amino acid sequences for entries named in this document (tags omitted). Residues count along the entry.
UniProt Q9NR97, residues 878-1022: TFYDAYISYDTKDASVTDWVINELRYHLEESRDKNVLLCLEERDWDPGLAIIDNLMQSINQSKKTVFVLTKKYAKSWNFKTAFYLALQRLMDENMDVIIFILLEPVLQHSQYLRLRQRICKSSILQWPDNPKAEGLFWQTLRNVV
UniProt Q86XR7: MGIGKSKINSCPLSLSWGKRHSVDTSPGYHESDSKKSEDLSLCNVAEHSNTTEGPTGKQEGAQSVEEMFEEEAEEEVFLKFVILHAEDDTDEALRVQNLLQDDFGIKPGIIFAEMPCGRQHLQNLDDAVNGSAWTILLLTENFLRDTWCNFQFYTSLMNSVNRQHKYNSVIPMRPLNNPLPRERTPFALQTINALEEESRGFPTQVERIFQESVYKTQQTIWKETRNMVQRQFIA
UniProt O00206, residues 672-815: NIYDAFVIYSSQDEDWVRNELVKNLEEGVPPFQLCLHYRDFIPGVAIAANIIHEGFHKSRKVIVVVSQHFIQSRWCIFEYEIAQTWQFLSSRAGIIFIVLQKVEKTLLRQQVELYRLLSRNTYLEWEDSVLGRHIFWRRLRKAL
UniProt O60603, residues 639-782: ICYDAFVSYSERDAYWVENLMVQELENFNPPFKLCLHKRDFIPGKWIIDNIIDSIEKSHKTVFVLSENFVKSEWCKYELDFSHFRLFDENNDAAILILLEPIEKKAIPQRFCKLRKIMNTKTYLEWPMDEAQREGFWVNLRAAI
UniProt Q9Y2C9, residues 640-781: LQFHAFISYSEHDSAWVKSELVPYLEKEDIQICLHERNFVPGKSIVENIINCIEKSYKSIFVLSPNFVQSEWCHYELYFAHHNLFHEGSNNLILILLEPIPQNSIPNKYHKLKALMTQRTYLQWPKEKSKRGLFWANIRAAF
UniProt O15455, residues 754-897: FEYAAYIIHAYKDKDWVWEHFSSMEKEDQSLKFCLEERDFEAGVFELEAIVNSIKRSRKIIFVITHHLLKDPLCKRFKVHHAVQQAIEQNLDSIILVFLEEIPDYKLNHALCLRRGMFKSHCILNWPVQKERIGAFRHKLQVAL
UniProt Q9BXR5, residues 632-775: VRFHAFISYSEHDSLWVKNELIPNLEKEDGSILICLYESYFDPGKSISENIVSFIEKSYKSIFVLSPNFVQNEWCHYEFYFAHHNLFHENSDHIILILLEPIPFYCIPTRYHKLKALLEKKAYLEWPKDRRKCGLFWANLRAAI
UniProt O60602, residues 691-836: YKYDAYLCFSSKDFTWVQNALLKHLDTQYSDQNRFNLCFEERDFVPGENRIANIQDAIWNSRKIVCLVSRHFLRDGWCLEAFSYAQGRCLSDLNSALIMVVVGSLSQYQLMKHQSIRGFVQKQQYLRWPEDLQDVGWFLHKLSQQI
UniProt Q9NYK1, residues 889-1033: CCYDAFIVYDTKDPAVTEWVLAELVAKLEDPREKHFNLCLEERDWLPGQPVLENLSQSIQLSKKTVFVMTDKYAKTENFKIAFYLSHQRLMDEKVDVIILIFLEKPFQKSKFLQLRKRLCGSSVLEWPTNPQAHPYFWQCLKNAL
UniProt Q8YF53: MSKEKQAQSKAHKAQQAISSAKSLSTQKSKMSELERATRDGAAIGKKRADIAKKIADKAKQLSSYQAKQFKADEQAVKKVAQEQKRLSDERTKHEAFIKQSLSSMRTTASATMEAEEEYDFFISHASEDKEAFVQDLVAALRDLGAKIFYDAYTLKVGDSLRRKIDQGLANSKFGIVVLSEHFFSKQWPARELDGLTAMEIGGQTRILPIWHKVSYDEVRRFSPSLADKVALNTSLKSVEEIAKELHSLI

Key:
Experiment in all cases: two-hybrid
TLR8 TIR domain = TLR8 TIR domain (UniProt Q9NR97)
TLR9 TIR domain = target: T1, TLR9 TIR domain (UniProt Q9NR96)
T1 sequence: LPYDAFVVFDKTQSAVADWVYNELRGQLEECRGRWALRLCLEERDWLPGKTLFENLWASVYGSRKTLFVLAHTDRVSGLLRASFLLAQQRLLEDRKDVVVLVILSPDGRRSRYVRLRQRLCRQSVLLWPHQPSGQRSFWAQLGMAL

TRAM = TRAM (UniProt Q86XR7)
TLR4 TIR domain = TLR4 TIR domain (UniProt O00206)
TLR2 TIR domain = TLR2 TIR domain (UniProt O60603)
TLR6 TIR domain = TLR6 TIR domain (UniProt Q9Y2C9)
TLR1 TIR domain = target: T2, TLR1 TIR domain (UniProt Q15399)
T2 sequence: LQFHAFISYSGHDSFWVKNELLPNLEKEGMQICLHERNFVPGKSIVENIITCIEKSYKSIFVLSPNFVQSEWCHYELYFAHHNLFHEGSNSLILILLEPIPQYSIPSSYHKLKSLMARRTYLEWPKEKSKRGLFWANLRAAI

TLR3 TIR domain = TLR3 TIR domain (UniProt O15455)
TLR10 TIR domain = TLR10 TIR domain (UniProt Q9BXR5)
TLR5 TIR domain = TLR5 TIR domain (UniProt O60602)
TLR7 TIR domain = TLR7 TIR domain (UniProt Q9NYK1)

Measured: binding

BtpA (B. melitensis 16 M, BMEI1674) (from UniProt Q8YF53 1-250)
no binding: all assays above
